Article PMC11341912

By UniProt entry, the sequences of proteins in these tests, tags left out.
UniProt P09874: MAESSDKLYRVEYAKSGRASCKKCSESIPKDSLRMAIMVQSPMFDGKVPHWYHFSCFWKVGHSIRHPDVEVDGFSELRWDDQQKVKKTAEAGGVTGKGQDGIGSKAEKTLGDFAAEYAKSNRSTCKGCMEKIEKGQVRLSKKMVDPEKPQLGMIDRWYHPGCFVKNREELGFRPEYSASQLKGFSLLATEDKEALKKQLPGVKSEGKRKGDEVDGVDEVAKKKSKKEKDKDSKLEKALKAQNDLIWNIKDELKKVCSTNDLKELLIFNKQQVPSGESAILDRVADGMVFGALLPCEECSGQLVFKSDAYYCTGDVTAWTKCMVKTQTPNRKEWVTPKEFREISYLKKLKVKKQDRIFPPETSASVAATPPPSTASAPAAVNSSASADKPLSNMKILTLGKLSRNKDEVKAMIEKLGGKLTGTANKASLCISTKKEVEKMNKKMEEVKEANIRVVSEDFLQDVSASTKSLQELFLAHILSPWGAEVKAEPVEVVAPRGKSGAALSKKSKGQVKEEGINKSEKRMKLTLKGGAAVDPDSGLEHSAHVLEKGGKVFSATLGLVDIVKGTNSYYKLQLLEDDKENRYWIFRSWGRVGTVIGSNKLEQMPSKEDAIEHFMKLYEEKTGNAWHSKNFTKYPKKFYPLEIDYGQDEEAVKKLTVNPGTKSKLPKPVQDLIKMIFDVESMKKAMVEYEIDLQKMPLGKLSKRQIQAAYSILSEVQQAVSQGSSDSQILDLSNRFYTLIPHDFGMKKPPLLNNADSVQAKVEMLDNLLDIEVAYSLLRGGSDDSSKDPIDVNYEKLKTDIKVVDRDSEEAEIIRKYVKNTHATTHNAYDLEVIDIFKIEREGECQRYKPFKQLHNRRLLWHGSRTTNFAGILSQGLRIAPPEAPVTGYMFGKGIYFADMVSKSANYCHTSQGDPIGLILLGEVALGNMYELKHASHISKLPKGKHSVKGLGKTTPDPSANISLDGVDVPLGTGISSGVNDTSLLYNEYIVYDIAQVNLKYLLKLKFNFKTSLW
UniProt Q9ULW0: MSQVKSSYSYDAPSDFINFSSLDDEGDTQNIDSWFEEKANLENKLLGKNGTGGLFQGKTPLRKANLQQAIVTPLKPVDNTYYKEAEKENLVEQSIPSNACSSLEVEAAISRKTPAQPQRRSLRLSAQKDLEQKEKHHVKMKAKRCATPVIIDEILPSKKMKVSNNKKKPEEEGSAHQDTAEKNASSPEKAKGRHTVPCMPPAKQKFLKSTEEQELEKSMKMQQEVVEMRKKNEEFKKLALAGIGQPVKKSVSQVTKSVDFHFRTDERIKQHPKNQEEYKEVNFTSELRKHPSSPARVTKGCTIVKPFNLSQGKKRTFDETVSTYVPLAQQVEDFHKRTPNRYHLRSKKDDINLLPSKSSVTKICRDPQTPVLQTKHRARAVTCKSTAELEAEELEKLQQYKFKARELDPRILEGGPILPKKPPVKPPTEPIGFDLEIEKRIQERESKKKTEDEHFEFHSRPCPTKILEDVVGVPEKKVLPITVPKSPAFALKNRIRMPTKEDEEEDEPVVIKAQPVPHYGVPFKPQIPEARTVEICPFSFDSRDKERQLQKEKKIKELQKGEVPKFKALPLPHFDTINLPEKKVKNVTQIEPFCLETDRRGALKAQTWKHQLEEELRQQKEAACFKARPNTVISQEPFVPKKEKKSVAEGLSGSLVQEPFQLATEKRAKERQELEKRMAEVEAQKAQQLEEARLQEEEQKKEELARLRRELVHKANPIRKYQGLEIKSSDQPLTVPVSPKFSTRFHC
UniProt P16402: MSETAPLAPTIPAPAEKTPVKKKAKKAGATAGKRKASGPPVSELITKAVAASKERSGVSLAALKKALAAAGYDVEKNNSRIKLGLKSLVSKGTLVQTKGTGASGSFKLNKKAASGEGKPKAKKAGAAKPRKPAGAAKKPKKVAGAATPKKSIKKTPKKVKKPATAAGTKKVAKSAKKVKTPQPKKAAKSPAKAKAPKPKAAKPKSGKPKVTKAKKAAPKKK
UniProt P17028: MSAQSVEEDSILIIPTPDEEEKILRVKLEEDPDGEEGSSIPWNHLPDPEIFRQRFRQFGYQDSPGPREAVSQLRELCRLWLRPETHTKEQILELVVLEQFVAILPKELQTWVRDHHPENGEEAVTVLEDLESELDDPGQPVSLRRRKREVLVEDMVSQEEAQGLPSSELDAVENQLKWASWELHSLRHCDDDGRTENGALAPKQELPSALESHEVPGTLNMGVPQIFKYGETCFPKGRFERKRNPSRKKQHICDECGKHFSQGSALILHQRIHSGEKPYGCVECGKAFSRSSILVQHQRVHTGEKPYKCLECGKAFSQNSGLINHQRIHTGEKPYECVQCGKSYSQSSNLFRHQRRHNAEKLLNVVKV

B1: endogenous PINX1 (protein, UniProt Q96BK5 1-328)
chain: MSMLAERRRKQKWAVDPQNTAWSNDDSKFGQRMLEKMGWSKGKGLGAQEQGATDHIKVQVKNNHLGLGATINNEDNWIAHQDDFNQLLAELNTCHGQETTDSSDKKEKKSFSLEEKSKISKNRVHYMKFTKGKDLSSRSKTDLDCIFGKRQSKKTPEGDASPSTPEENETTTTSAFTIQEYFAKRMAALKNKPQVPVPGSDISETQVERKRGKKRNKEATGKDVESYLQPKAKRHTEGKPERAEAQERVAKKKSAPAEEQLRGPCWDQSSKASAQDAGDHVQPPEGRDFTLKPKKRRGKKKLQKPVEIAEDATLEETLVKKKKKKDSK
B2: endogenous UTP14A (protein, UniProt Q9BVJ6 1-771)
chain: MTANRLAESLLALSQQEELADLPKDYLLSESEDEGDNDGERKHQKLLEAISSLDGKNRRKLAERSEASLKVSEFNVSSEGSGEKLVLADLLEPVKTSSSLATVKKQLSRVKSKKTVELPLNKEEIERIHREVAFNKTAQVLSKWDPVVLKNRQAEQLVFPLEKEEPAIAPIEHVLSGWKARTPLEQEIFNLLHKNKQPVTDPLLTPVEKASLRAMSLEEAKMRRAELQRARALQSYYEAKARREKKIKSKKYHKVVKKGKAKKALKEFEQLRKVNPAAALEELEKIEKARMMERMSLKHQNSGKWAKSKAIMAKYDLEARQAMQEQLSKNKELTQKLQVASESEEEEGGTEDVEELLVPDVVNEVQMNADGPNPWMLRSCTSDTKEAATQEDPEQLPELEAHGVSESEGEERPVAEEEILLREFEERRSLRKRSELSQDAEPAGSQETKDSGSQEVLSELRVLSQKLKENHQSRKQKASSEGTIPQVQREEPAPEEEEPLLLQRPERVQTLEELEELGKEECFQNKELPRPVLEGQQSERTPNNRPDAPKEKKKKEQMIDLQNLLTTQSPSVKSLAVPTIEELEDEEERNHRQMIKEAFAGDDVIRDFLKEKREAVEASKPKDVDLTLPGWGEWGGVGLKPSAKKRRRFLIKAPEGPPRKDKNLPNVIINEKRNIHAAAHQVRVLPYPFTHHWQFERTIQTPIGSTWNTQRAFQKLTTPKVVTKPGHIINPIKAEDVGYRSSSRSDLSVIQRNPKRITTRHKKQLKKCSVD

Molecular target: full-length PARP1 tagged on the C-terminus with TurboID (UniProt P09874)
Test: proximity labelling; PARP1-TurboID transiently expressed in cells, 500 μM biotin for 10 min at 37 °C; streptavidin beads under denaturing conditions (8 M urea), mass spectrometry; controls TurboID alone and no biotin

Row | Molecule | binding
1 | TPX2 (from UniProt Q9ULW0 1-747) | binds
2 | HIST1H1D (from UniProt P16402 1-221) | binds
3 | endogenous ZNF24 (from UniProt P17028 1-368) | binds
4 | B1 | binds
5 | B2 | binds

These are yes or no findings as the source states them, for the method shown. In cells and extracts the contact can be indirect. These calls come from enrichment with a bait or labelling near it, and not all partners need be listed.
